# Reference: PubChem BioAssay AID652054 (National Center for Advancing Translational Sciences (NCATS), 2013)
# Sequences of proteins named here, by UniProt entry; tags and fusion partners are left off.
# UniProt P35462, whole entry, looked up: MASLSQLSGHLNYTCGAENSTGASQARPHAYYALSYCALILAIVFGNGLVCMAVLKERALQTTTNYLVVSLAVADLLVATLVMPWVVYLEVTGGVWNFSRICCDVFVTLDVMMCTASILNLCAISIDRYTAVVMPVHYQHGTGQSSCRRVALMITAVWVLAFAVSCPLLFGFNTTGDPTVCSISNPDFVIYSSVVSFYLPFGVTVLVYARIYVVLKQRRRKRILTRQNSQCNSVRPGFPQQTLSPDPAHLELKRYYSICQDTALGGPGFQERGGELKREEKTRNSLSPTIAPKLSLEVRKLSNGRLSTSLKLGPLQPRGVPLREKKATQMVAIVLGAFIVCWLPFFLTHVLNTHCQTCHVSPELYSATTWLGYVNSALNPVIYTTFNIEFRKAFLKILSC
# The whole screen tested about 360,000 compounds, of which about 9,100 (2.5%) were called active. The inconclusive results got no clear call from the source; some entries with a clear call stand among them for comparison. Rule as the data show it: active = max response below about -50%; inconclusive = no clear call, values can overlap the other calls; inactive = above that.
# Molecular target: D(3) dopamine receptor (Homo sapiens) (UniProt P35462)
# Experiment: qHTS of D3 Dopamine Receptor Antagonist: qHTS
# Details: D3R cells, DiscoveRx beta-arrestin luminescence, antagonist mode; hits give low values
# Method in brief: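 Cells expressing the human receptor were seeded at 1500 cells/well, incubated overnight at 37 degrees C in 5% CO2, then exposed to library compounds with dopamine controls for 90 minutes at 37 degrees C before luminescent detection.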
# % is scaled to controls: 0 for no effect and ±100 for the full control effect.
row,Structure (SMILES),"max response, negative = inhibition"
1,COc1ccc(N2CCN(C(=O)CSc3nnc(-c4cccnc4)n3-c3ccccc3)CC2)cc1,inconclusive: -35.7%
2,CCC(C)Sc1ccc([C@@H]2[C@@H]3C(=O)N(CC)C(=O)[C@@H]3[C@]3(C(=O)OC)CCCCN23)cc1OC (some centres undefined),inactive: 15.5%
3,O=[N+]([O-])c1ccc(O)c(/C=N/n2c(-c3ccccc3)n[nH]c2=S)c1,inconclusive: -48.5%
4,Cn1ccc2c(-c3ccc(F)cc3)cc3c(c21)C1CCC3C1 (centres undefined),inactive: 8.66%
5,CCC(C(=O)NC1CCCC1)n1c(C2CC2)nc2ccccc21 (centres undefined),inconclusive: -37.8%
6,Cc1ccc([N+](=O)[O-])cc1NC(=O)c1ccc(CSc2ccccc2)cc1,inconclusive: -43.1%
7,CC(=O)Nc1ccc(N(C(=O)c2cnccn2)C(C(=O)NC2CCCCC2)c2ccc(O)cc2)cc1 (centres undefined),inactive: -10.4%
8,C#CCOCCOCCOCCNc1nc(N2CCOCC2)nc(N2CCN(C(=O)[C@H](CCCCN)n3cc(CCC(=O)O)nn3)CC2)n1,inconclusive: -37.6%
9,Cc1ccc(-c2nc(SCC(=O)NCC3CCCO3)c(-c3ccc(C)cc3)[nH]2)cc1 (centres undefined),inconclusive: -43.2%
10,COc1ccc(NS(=O)(=O)c2cccc(C(=O)N/N=C/c3cccs3)c2)cc1,active: -52.3%
11,O=C(OCC(=O)N1CCOCC1)c1ccccc1Br,inactive: -2.35%
12,O=c1oc2ccccc2c(Cl)c1CN1CCCCC1,active: -76.3%
13,O=c1cc(CSc2ccccc2)[nH]c(=S)[nH]1,active: -95.2%
14,CC(Oc1ccc(Br)cc1)C(=O)NC1CCN(Cc2ccccc2)CC1 (centres undefined),active: -74.6%
15,O=C(NC1CCCC1)c1ccc(COc2ccccc2Br)o1,inactive: -17.3%
16,COC(=O)c1ccc(OCCCCN2CC(C)OC(C)C2)cc1 (centres undefined),active: -74.5%
17,CC(=O)N1c2ccc(S(=O)(=O)N3CCC(C(=O)NC(C)c4ccccc4)CC3)cc2CC1C (centres undefined),inconclusive: -32.6%
18,O=C(c1cc(-c2cccc(O)c2)on1)N1CCc2ccccc2C1,inconclusive: -33%
19,Cc1cc(NC(=O)CSc2nnc(C3CC3)n2Cc2ccccc2)no1,inconclusive: -42.7%
20,O=C1C(c2ccccc2)=[N+]([O-])c2ccccc21,inconclusive: -38.6%
21,O=C1CC2CS(=O)(=O)CC2N1C1CCCCC1 (centres undefined),inconclusive: -33%
22,CCCCN1CC(=O)N2[C@H]3c4ccc(OC)cc4OC[C@@H]3[C@H](c3ccccc3)[C@]2(C)C1=O,inconclusive: -38.4%
23,FC(F)(F)c1ccc(CN2CCCCCC2)cc1,inactive: -13.1%
24,COc1cccc(C2=NN(C(=O)CCCC(=O)O)C(c3cccs3)C2)c1 (centres undefined),inactive: 2.79%

# Copied from above: compounds 9 to 10
row,Structure (SMILES),"max response, negative = inhibition"
9,Cc1ccc(-c2nc(SCC(=O)NCC3CCCO3)c(-c3ccc(C)cc3)[nH]2)cc1 (centres undefined),inconclusive: -43.2%
10,COc1ccc(NS(=O)(=O)c2cccc(C(=O)N/N=C/c3cccs3)c2)cc1,active: -52.3%
